According to article PMC9897197 (Brain, 2022):

Test: Brain uptake
Conditions: ISCP, 3H-diazepam (0.3 µCi/µl), age-matched (15-week-old) C57Bl6 mice; mean ± SEM

## CN1C(=O)CN=C(c2ccccc2)c2cc(Cl)ccc21 [diazepam]
  brain uptake coefficient of diazepam (highly diffusible comparator): 45.6 ± 2.6 µL/g/s
